PubChem BioAssay AID1159578 – Peter MacCallum Cancer Centre – 2015
The deposit covers about 18,000 reagents; shown is a part drawn at random. Over the whole deposit, about 1,030 (5.7%) got an active call. 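Inactive calls also include pools with fewer than 3300 nuclei, whose migration was not assessed.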 Raw values are not corrected between plates. Further read-outs or replicates are left out here.

Aim: 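Knock-downs that alter how fast lymphatic endothelial cells migrate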 (primary screen)
System: human lymphatic endothelial cells
Knock-down reagent: siRNA pool against human genes, 40 nM
Timing: 48 h after transfection
Detection: 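High-content imaging of dye-stained cells in a scratch assay measures filled wound area and nuclei per well; duplicate means given as ratio to mock and robust z-score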
Reading the numbers: migration robust z-score: higher = faster migration into the scratch; nuclei per well: higher = more cells in the well
Rule for the call: 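Pools averaging fewer than 3300 nuclei are never called; remaining pools count as changed when migration robust z lies outside -2 to 2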
Calls: active = migration changed; inactive = no migration change, or too few cells

With knock-down of KALRN the results were migration robust z-score 1.03; migration class with cell-count check migration z between -2 and 2; enough cells; nuclei per well, duplicate mean 6180; inactive.
LINC02903 gave migration robust z-score 1.09; migration class with cell-count check migration z between -2 and 2; enough cells; nuclei per well, duplicate mean 6293; inactive.
Knock-down of CDCA7L resulted in: migration robust z-score 0.12; migration class with cell-count check migration z between -2 and 2; enough cells; nuclei per well, duplicate mean 5254; inactive.
With knock-down of COMMD8, the record shows migration robust z-score -0.01; migration class with cell-count check migration z between -2 and 2; enough cells; nuclei per well, duplicate mean 5758; inactive.
With knock-down of ZNF382, the record shows migration robust z-score -0.08; migration class with cell-count check migration z between -2 and 2; enough cells; nuclei per well, duplicate mean 6514; inactive.
Knock-down of CD3E gave: migration robust z-score -1.72; migration class with cell-count check migration z between -2 and 2; enough cells; nuclei per well, duplicate mean 4421; inactive.
Against GABRA3, the entry reads migration robust z-score 0.16; migration class with cell-count check migration z between -2 and 2; enough cells; nuclei per well, duplicate mean 4859; inactive.
For ZCCHC3 the deposit lists migration robust z-score -2.14; migration class with cell-count check migration z below -2; enough cells; nuclei per well, duplicate mean 3306; active.
Silencing of METTL14 gave: migration robust z-score 1.81; migration class with cell-count check migration z between -2 and 2; enough cells; nuclei per well, duplicate mean 4818; inactive.
For PRDX3 the deposit lists migration robust z-score -0.36; migration class with cell-count check migration z between -2 and 2; enough cells; nuclei per well, duplicate mean 6243; inactive.
SRPK3 showed migration robust z-score -0.83; migration class with cell-count check migration z between -2 and 2; enough cells; nuclei per well, duplicate mean 4622; inactive.
For OTUD6B, the entry reads migration robust z-score 0.03; migration class with cell-count check migration z between -2 and 2; enough cells; nuclei per well, duplicate mean 6443; inactive.
For NELL1, the entry reads migration robust z-score 0.34; migration class with cell-count check migration z between -2 and 2; enough cells; nuclei per well, duplicate mean 7034; inactive.
ITPK1 scored migration robust z-score -1.33; migration class with cell-count check migration z between -2 and 2; enough cells; nuclei per well, duplicate mean 5215; inactive.
Knock-down of C2CD4B came out at: migration robust z-score -0.52; migration class with cell-count check migration z between -2 and 2; enough cells; nuclei per well, duplicate mean 6204; inactive.
Silencing of BORCS6 gave: migration robust z-score -3.77; migration class with cell-count check migration z below -2; enough cells; nuclei per well, duplicate mean 4310; active.
For EML5, the entry reads migration robust z-score -0.05; migration class with cell-count check migration z between -2 and 2; enough cells; nuclei per well, duplicate mean 5966; inactive.
Depletion of SULT1C4 came out at: migration robust z-score -0.26; migration class with cell-count check migration z between -2 and 2; enough cells; nuclei per well, duplicate mean 6353; inactive.
VN1R10P showed migration robust z-score -0.34; migration class with cell-count check migration z between -2 and 2; enough cells; nuclei per well, duplicate mean 6250; inactive.
Silencing of KDM6A came out at: migration robust z-score 0.62; migration class with cell-count check migration z between -2 and 2; enough cells; nuclei per well, duplicate mean 7508; inactive.
Silencing of GBA1 resulted in: migration robust z-score -3.82; migration class with cell-count check migration z below -2; enough cells; nuclei per well, duplicate mean 4138; active.

Sorted by “nuclei per well, duplicate mean” (high to low): some entries from above
PRDX3 | migration robust z-score: -0.36; migration class with cell-count check: migration z between -2 and 2; enough cells; nuclei per well, duplicate mean: 6243; Call: inactive
METTL14 | migration robust z-score: 1.81; migration class with cell-count check: migration z between -2 and 2; enough cells; nuclei per well, duplicate mean: 4818; Call: inactive
ZCCHC3 | migration robust z-score: -2.14; migration class with cell-count check: migration z below -2; enough cells; nuclei per well, duplicate mean: 3306; Call: active
